# Test results reported in PubChem BioAssay AID1347076 (National Center for Advancing Translational Sciences (NCATS), 2019).
# In all, about 400,000 compounds went through this assay and about 13,000 (3.2%) were called active. The inconclusive results got no clear call from the source; some entries with a clear call stand among them for comparison. The call rests on the fitted dose curve; in most records, active means well fitted cell-killing curve with a large enough effect; inconclusive means small, poorly fitted or top-dose-only effect, or effect the other way; inactive means flat fitted curve, though single readings scatter. A potency beside an inconclusive call is a rough fit, not a confirmed value.
# Test: qHTS assay for MDR1-selective chemotherapeutics: Primary screen using the drug-selected MDR subline cells KB-V1; further: nearly all actives have a fitted effect of over 60% in size
# Details: KB-V1 MDR cells viability, CellTiter-Glo, 72 h; activity change, negative = cytotoxicity: at 46.1 µM (top of the series)
# In short: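 Drug-selected KB-V1 cells, grown in DMEM lacking phenol red with 10% FBS, receive compound titrations; after three days at 37 degrees C, surviving cell ATP is quantified by CellTiter-Glo luminescence and responses normalized and curve-fitted.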
# On the % scale 0 is the no-effect control and ±100 the full control effect; potency means the concentration at half of the fitted maximal effect.
Compound,Potency,"activity change, negative = cytotoxicity"
Cc1nc(SCC(=O)Nc2sccc2C(N)=O)c2c(C)c(C)sc2n1,inactive,
CCN1CCN(c2sc(S(=O)(=O)CC)nc2S(=O)(=O)c2ccc(Cl)cc2)CC1,"inconclusive: 1.46 µM [cytotoxic, partial curve, poor fit]",
COc1cc(OC)c(C2C=CC(=O)CC2)c(OC)c1 (centres undefined),inactive,
CCCn1nc(NC(=O)c2cccs2)c2cc3cc(C)ccc3nc21,"inconclusive: 11.6 µM [cytotoxic, single point]",
COC(=O)Nc1ccc(S(=O)(=O)N2CCCCCC2)cc1,active: 18.4 µM,
COc1ccc(OCCCC(=O)NNC(=O)c2ccncc2)cc1,inactive,
C=CCNC(=O)/C(C#N)=C\c1cc(Cl)c(OCC)c(OC)c1,inactive,
CC(Oc1ccc(Br)cc1)C(=O)Nc1cc(Cl)ccc1N1CCN(C)CC1 (centres undefined),"inconclusive: 29.1 µM [cytotoxic, single point]",
O=C(COc1ccc(S(=O)(=O)N2CCCCC2)cc1)NC1CCCCC1,"inconclusive: 9.2 µM [cytotoxic, partial curve]",
O=C(O)CN1C(=O)C=CC1=O,inactive,
CCOC(=O)COc1c(Cl)cc(/C=C2\N=C(C)OC2=O)cc1OC,inactive,
CCCCn1cc(C(C)(C)C)c(C#N)c1NC(C)=O,,inconclusive: 31.3%
COc1cc(CNCCCN2CCOCC2)ccc1OCC(=O)Nc1cccc(C(F)(F)F)c1,inactive,
O=C(Nc1cc(Br)ccc1O)c1cnn2c(C(F)F)cc(C3CC3)nc12,inactive,
Cc1cccc(-c2cnc(C(O)c3ccc4ccccc4c3)[nH]2)c1 (centres undefined),inactive,
Cc1ccc(-n2c(SCC(=O)NCC3CCCO3)nc3n[nH]c(C)c3c2=N)cc1Cl (centres undefined),"inconclusive: 18.4 µM [cytotoxic, single point]",
COc1ccc(Br)cc1C(=O)N/N=C/c1cccnc1,inactive,
Cc1nc(N2CCOCC2)c2c(C)c(C(=O)Nc3ccc(C(F)(F)F)cc3)sc2n1,"inconclusive: 20.6 µM [cytotoxic, single point]",
O=C(NCCC(=O)N(CCc1ccccc1)Cc1ccccc1)c1ccccc1Cl,"inconclusive: 3.66 µM [cytotoxic, partial curve]",
NC(=O)NC(=O)CN1C(=O)NC2(CCOc3ccccc32)C1=O (centres undefined),inactive,
COc1ccc(OC)c(NC(=O)Cc2c(C(=O)O)n(C)c3ccc(C)cc23)c1,inactive,
COc1ccc(Cl)cc1NS(=O)(=O)c1cccc(C(=O)NCC(c2ccco2)N2CCCC2)c1 (centres undefined),"inconclusive: 7.31 µM [cytotoxic, partial curve]",
O=[N+]([O-])c1ccc(N2CCOCC2)c(S(=O)(=O)N2CCOCC2)c1,inactive,
Cc1cccnc1CN1CCN(Cc2nc(Cc3cccc(F)c3)no2)CC1,"inconclusive: 14.6 µM [cytotoxic, single point]",
Cc1ccc(CN=C2Nc3ccccc3CS2)cc1,active: 13 µM,

Compound,Potency,"activity change, negative = cytotoxicity"
O=C1c2[nH]nc(-c3ccccc3O)c2C(c2ccc(F)cc2)N1CCO (centres undefined),inactive,
C#CCOCCOCCOCCNc1nc(N2CCN(C(=O)CCCCCCCCCCNC(=O)[C@@H](CCSC)n3cc(CCO)nn3)CC2)nc(N2CCN(C(=O)CCCCCCCCCCNC(=O)[C@@H]([C@H](C)O)n3cc(C)nn3)CC2)n1,inactive,
Cc1ccc(N(C(=O)Cn2nnc(-c3ccc(C)o3)n2)C(C(=O)NC2CCCC2)c2ccco2)cc1 (centres undefined),"inconclusive: 11.2 µM [cytotoxic, partial curve, poor fit]",
CCc1cc(C(=O)N2CCN(S(=O)(=O)c3ccccc3F)CC2)sc1C,inactive,
COc1cc(-c2nnc(-c3ccccc3)o2)cc(OC)c1OC,active: 9.2 µM,
COC(=O)c1cnn(-c2ccc(C(=O)Nc3cc(OC)c(OC)c(OC)c3)cc2)c1N,inactive,
NC(=S)Nn1c(CCC(=O)O)ccc1-c1ccccc1,inactive,
O=C(COC(=O)c1ccc(F)c(S(=O)(=O)N2CCCCC2)c1)NCc1ccc(F)cc1,"inconclusive: 0.651 µM [rising, full curve]",
Cc1cc(C(=O)NNc2ccc(C(C)C)cc2)n(C(C)(C)C)n1,"inconclusive: 23.1 µM [rising, partial curve, poor fit]",
COc1ccc(C(=O)c2ccccc2Cl)cc1OC,"inconclusive: 29.1 µM [cytotoxic, single point]",
O=c1[nH]cncc1OCc1ccccc1,inactive,
O=C(NC(=S)Nc1ccccn1)c1cccc([N+](=O)[O-])c1,"inconclusive: 18.4 µM [rising, partial curve, poor fit]",
CCC(=O)Nc1ccc(S(=O)(=O)Nc2ncccn2)cc1,"inconclusive: 8.2 µM [rising, partial curve, poor fit]",
CCOC(=O)c1cnc(N2CCN(C(=O)OCC)CC2)[nH]c1=O,"inconclusive: 23.1 µM [cytotoxic, single point]",
CCc1cccc(C)c1Nc1c(-c2cccc(O)c2)nc2nc(C)cc(C)n12,inactive,
COc1cccc(CC2(CO)CCCN(Cc3cn(C)c4ccccc34)C2)c1 (centres undefined),inactive,
O=C(CSc1nnc(CNC(=O)c2c(F)cccc2Cl)o1)NCc1ccc(F)cc1,inactive,
CCc1ccc(CNC(=O)c2c(C)oc3ncn(CC(C)C)c(=O)c23)cc1,inactive,
Cc1cc(N/N=C/c2ccc(O)c(C)c2O)nc(-c2ccccc2O)n1,"inconclusive: 29.1 µM [cytotoxic, single point]",
O=C(C1CCCN(c2ncnc3c2nc2n3CCCCC2)C1)N1CCN(c2ccccc2)CC1 (centres undefined),"inconclusive: 2.31 µM [cytotoxic, partial curve, poor fit]",
Cc1nc(N2CCN(S(=O)(=O)c3ccc(F)cc3)CC2)c2c(C)c(C)sc2n1,"inconclusive: 13 µM [cytotoxic, partial curve]",
O=C(CCl)N(c1ccccc1)C1CCCCC1,"inconclusive: 29.1 µM [cytotoxic, single point]",
C=CCn1c(SCC(=O)Nc2nc3ccccc3s2)nc(O)c(CC)c1=O,"inconclusive: 0.651 µM [rising, full curve, poor fit]",
Cc1cc(=O)[nH]c2ccc(Cl)cc12,"inconclusive: 0.517 µM [cytotoxic, full curve, poor fit]",

# Taken from the listing for reference:
Compound,Potency,"activity change, negative = cytotoxicity"
O=C(CSc1nnc(CNC(=O)c2c(F)cccc2Cl)o1)NCc1ccc(F)cc1,inactive,
CCc1ccc(CNC(=O)c2c(C)oc3ncn(CC(C)C)c(=O)c23)cc1,inactive,
Cc1cc(N/N=C/c2ccc(O)c(C)c2O)nc(-c2ccccc2O)n1,"inconclusive: 29.1 µM [cytotoxic, single point]",
O=C(C1CCCN(c2ncnc3c2nc2n3CCCCC2)C1)N1CCN(c2ccccc2)CC1 (centres undefined),"inconclusive: 2.31 µM [cytotoxic, partial curve, poor fit]",
